No constants are given. Whether binding was seen depends on the method and setting. Some results given as binding are weak or reduced against the parent protein; the word gives no strength.
Experiments:
[1] = target: Runt-related transcription factor 1 (RUNX1) (human) (UniProt Q01196); experiment: immunocytochemistry and confocal microscopy, co-localization in mRNA-transfected C-PVR cells
[2] = target: Runt-related transcription factor 1 (RUNX1) (human) (UniProt Q01196); experiment: immunocytochemistry of mRNA-transfected C-PVR cells (FIG. 3C)
[3] = target: Runt-related transcription factor 1 (RUNX1) (human) (UniProt Q01196); experiment: summary of Examples 1 to 6; co-localization in C-PVR cells

Protein sequences, listed by entry. Tags and fused reporters are not part of them. Lines headed by an entry give the natural chain unless they say otherwise; changes in a name come on top.
UniProt Q01196: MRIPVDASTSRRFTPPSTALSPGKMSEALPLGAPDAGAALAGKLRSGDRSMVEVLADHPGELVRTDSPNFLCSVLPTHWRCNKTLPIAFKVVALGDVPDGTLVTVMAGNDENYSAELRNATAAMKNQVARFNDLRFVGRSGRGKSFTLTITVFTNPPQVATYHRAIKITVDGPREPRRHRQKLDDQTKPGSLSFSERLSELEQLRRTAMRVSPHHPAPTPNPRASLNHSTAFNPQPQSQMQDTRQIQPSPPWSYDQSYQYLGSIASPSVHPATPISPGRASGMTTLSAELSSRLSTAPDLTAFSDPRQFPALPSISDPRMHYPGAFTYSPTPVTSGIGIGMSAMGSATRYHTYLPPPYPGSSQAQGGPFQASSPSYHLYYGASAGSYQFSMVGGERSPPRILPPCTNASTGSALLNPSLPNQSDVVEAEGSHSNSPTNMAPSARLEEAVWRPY

Measured: binding

B1: CBFbeta(1-165)-SMMHC(1527-1877) (CBFbeta-SMMHCΔC95) (protein)
chain: MPRVVPDQRSKFENEEFFRKLSRECEIKYTGFRDRPHEERQARFQNACRDGRSEIAFVATGTNLSLQFFPASWQGEQRQTPSREYVDLEREAGKVYLKAPMILNGVCVIWKGWIDLQRLDGMGCLEFDEERAQQEDALAQQAFEEARRRTREFEDRDRSHREEMEVHELEKSKRALETQMEEMKTQLEELEDELQATEDAKLRLEVNMQALKGQFERDLQARDEQNEEKRRQLQRQLHEYETELEDERKQRALAAAAKKKLEGDLKDLELQADSAIKGREEAIKQLRKLQAQMKDFQRELEDARASRDEIFATAKENEKKAKSLEADLMQLQEDLAAAERARKQADLEKEELAEELASSLSGRNALQDEKRRLEARIAQLEEELEEEQGNMEAMSDRVRKATQQAEQLSNELATERSTAQKNESARQQLERQNKELRSKLHEMEGAVKSKFKSTIAALEAKIAQLEEQVEQEAREKQAATKSLKQKDKKLKEILLQVEDERKMAEQYKEQAEKGNA
binds: all assays above
